± gives the standard error. This is one part of the list. This data set is noisy: repeats of one test often differ as much as different tests do.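 The library held every possible DNA sequence from one to five nucleotides long. General ability to extend was judged against a limit of the blocked-version mean plus three standard deviations, and the probe detects only chains extended by at least seven dT.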
Target: terminal deoxynucleotidyl transferase (calf thymus) (UniProt P06526)
Assay: TdT poly-dT extension signal (Cy3 hybridisation fluorescence, uncapped minus capped) (fluorescence a.u.); higher = more efficient initiation of TdT extension
Settings: initiator chemistry: D-DNA, free 3'-OH (5'-tethered via HEG linker)
Protocol: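 All mono- to pentamer initiator sequences were made by photolithographic in situ synthesis (reverse 5'->3' direction) on glass on a single hexaethylene glycol linker. Each was made in uncapped and DMTr-dT-capped versions, about 11 replicate features each. Arrays were extended with calf thymus TdT (0.2 U/uL) and 100 uM dTTP in TdT buffer with 0.25 mM CoCl2 for 120 min at 37 C, then hybridised with an rA18-Cy3 probe at 4 C and scanned at 532 nm. The value is the mean uncapped signal minus the mean capped signal of the same sequence.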

Protein sequences, listed by entry. Tags and fused reporters are not part of them. Lines headed by an entry give the natural chain unless they say otherwise; changes in a name come on top.
UniProt P06526: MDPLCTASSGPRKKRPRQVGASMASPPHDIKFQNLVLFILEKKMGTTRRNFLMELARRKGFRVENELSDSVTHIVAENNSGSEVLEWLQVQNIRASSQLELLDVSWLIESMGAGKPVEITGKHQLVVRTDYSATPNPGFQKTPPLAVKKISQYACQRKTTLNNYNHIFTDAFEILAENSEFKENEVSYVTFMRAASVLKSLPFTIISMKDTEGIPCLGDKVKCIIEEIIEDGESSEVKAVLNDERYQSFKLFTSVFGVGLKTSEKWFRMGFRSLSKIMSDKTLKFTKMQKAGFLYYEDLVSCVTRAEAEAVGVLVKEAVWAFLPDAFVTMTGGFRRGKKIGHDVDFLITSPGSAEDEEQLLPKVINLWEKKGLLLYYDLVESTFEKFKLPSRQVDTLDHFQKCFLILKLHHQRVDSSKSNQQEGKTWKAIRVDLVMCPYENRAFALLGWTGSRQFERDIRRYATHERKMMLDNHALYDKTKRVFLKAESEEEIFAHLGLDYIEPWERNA

Sequence | TdT poly-dT extension signal
TCCCT | 3250 ± 530
GAGTC | 2910 ± 560
TGTCC | 3120 ± 200
ACAG | 3930 ± 300
CTAGT | 5030 ± 260
CACCG | 3580 ± 390
TTACT | 2900 ± 310
TGTTT | 4380 ± 240
AAAC | 2880 ± 280
TTACC | 2900 ± 240
CAAGG | 4700 ± 240
TTTTG | 3570 ± 370
AAAAT | 3610 ± 420
GGGGG | 5010 ± 560
TCTTA | 3460 ± 390
GCCAC | 2940 ± 430
AGATA | 3320 ± 360
CAGTA | 3150 ± 320
CTTCC | 2940 ± 230
CCTAA | 3290 ± 490
AAAAG | 3980 ± 540
GAGAT | 3770 ± 420
ATGGC | 3480 ± 270
CTGTA | 3930 ± 480

Sequence | TdT poly-dT extension signal
ATTTG | 3430 ± 350
CTGGA | 2810 ± 560
ACGCC | 3040 ± 380
CATCG | 3450 ± 430
TGCCG | 3820 ± 200
CGGGA | 4650 ± 420
GGAAT | 3450 ± 440
CTTC | 3400 ± 250
GGCC | 3350 ± 310
GTGCC | 2600 ± 250
ACCTG | 3520 ± 260
CGTCG | 2910 ± 390
TAGCT | 3450 ± 280
TAAT | 4070 ± 260
AATTG | 4300 ± 370
CGCG | 3240 ± 450
GTAAG | 3930 ± 440
ACCT | 3520 ± 400
GATCA | 3710 ± 250
GCAGT | 3720 ± 400
GACGA | 4080 ± 310
AATGC | 2990 ± 300
GACGG | 3800 ± 530
GAAC | 2420 ± 280

Sequence | TdT poly-dT extension signal
CGAAG | 3940 ± 480
ATGC | 3010 ± 290
CGACC | 3270 ± 300
TGAC | 2420 ± 330
ACAT | 3500 ± 240
GACGT | 3680 ± 340
CTACT | 3340 ± 280
GTGGC | 2690 ± 390
CCTTG | 3430 ± 380
ACGG | 4170 ± 340
GCTCC | 3110 ± 290
ATCTT | 3670 ± 400
GGACC | 3370 ± 340
CCGAG | 3790 ± 460
CATAT | 3400 ± 450
AAGC | 2840 ± 440
TAGTT | 3860 ± 720
CGGA | 3570 ± 500
CTAGG | 3000 ± 470
GCCT | 3660 ± 280
GTCCG | 3410 ± 240
CGCTC | 3340 ± 330
ATGTC | 3280 ± 320
AAACT | 2100 ± 290

Sequence | TdT poly-dT extension signal
GCGGG | 5120 ± 310
ATTAT | 3480 ± 290
GGATT | 3470 ± 390
TATA | 3110 ± 390
ACACT | 3760 ± 600
AAGGT | 3730 ± 300
TCAAG | 3710 ± 520
ACTC | 3030 ± 340
GCGGT | 3760 ± 420
GCGAC | 4190 ± 340
AGGAG | 4330 ± 420
TCGGA | 3430 ± 380
GTTCC | 3140 ± 250
GTTAA | 4000 ± 360
TTAAT | 4950 ± 520
AGAGT | 3970 ± 420
CTCT | 3060 ± 290
GTGGT | 3600 ± 380
TCATG | 3140 ± 430
TTGA | 2420 ± 420
TTTTT | 4050 ± 520
CGTAC | 4230 ± 450
GATAG | 4580 ± 310
TTAC | 2790 ± 160

Sequence | TdT poly-dT extension signal
GAAAA | 5290 ± 420
CACT | 2930 ± 410
TACTG | 3980 ± 390
CCATC | 2950 ± 430
GACT | 3340 ± 380
GCCAT | 4520 ± 620
ATAGG | 3530 ± 460
TCCG | 3910 ± 370
TGAGT | 3800 ± 430
GGGC | 3610 ± 430
ATATT | 4270 ± 170
CGTCA | 3270 ± 420
TGCAC | 3280 ± 380
GCTAT | 3540 ± 400
TGGAG | 3910 ± 440
TCCA | 3930 ± 370
GCTAC | 3610 ± 530
CGTTT | 4330 ± 330
TGTGA | 3700 ± 350
ACCCA | 4600 ± 230
GTATG | 3640 ± 430
CTGTG | 4470 ± 810
ACAGT | 4590 ± 210
CTACC | 2730 ± 290

Sequence | TdT poly-dT extension signal
AGGAA | 3320 ± 500
TCGAG | 3960 ± 500
TAGCG | 3870 ± 420
CGTAG | 3280 ± 430
CAGTT | 4480 ± 460
TTAAA | 5160 ± 220
GCTG | 2840 ± 370
TAGAT | 3310 ± 400
CCCCA | 3340 ± 430
AATAG | 3880 ± 450
TATTT | 5470 ± 880
GCCC | 2960 ± 410
CAGC | 3700 ± 570
GACAC | 3570 ± 280
GGGCC | 3660 ± 240
GGACT | 3050 ± 290
GAAGG | 4350 ± 700
AATC | 3420 ± 280
TCTAA | 4410 ± 370
GGTA | 3200 ± 400
TATGA | 3730 ± 420
TGAGC | 3670 ± 690
GCGTA | 3990 ± 350
GGAC | 2770 ± 390

Sequence | TdT poly-dT extension signal
GCCGT | 3830 ± 380
ACAGG | 4360 ± 440
GCTAG | 3080 ± 550
ACGCG | 3280 ± 360
TTTTA | 4110 ± 450
TGGCA | 4020 ± 480
ACACA | 3580 ± 260
TGTCA | 4230 ± 290
CTGCT | 3100 ± 470
AACTG | 3330 ± 220
AGAAA | 4080 ± 420
ACGGC | 4580 ± 400
AGTT | 3930 ± 310
GTTC | 3090 ± 320
CAACG | 4210 ± 440
ATGTT | 4000 ± 340
CAACA | 3430 ± 420
TTGAG | 3530 ± 470
TACCC | 2640 ± 280
AGCAA | 3750 ± 430
GCAAA | 3800 ± 510
CGACA | 2910 ± 430
TTTCC | 2890 ± 280
TACC | 3390 ± 230

Sequence | TdT poly-dT extension signal
AGATC | 2930 ± 310
GAACG | 3610 ± 360
GGAGC | 3830 ± 400
GTTGC | 3240 ± 300
AATAC | 2680 ± 340
ACCGA | 3470 ± 460
TGGA | 2880 ± 450
ACTAC | 2470 ± 390
GGACA | 3530 ± 530
GAACC | 3020 ± 320
CGAC | 3320 ± 390
CGGTG | 4970 ± 570
TCGGG | 5020 ± 470
CGGAT | 3360 ± 530
CATCT | 3920 ± 140
AGGG | 3920 ± 420
GCGCC | 3420 ± 340
TTTC | 2810 ± 380
GTCCT | 3280 ± 180
CCAG | 4100 ± 320
AGTC | 2940 ± 290
GGCCC | 3590 ± 270
GGAG | 3730 ± 400
ATGT | 3690 ± 380

Sequence | TdT poly-dT extension signal
GGCG | 3600 ± 450
CAGGC | 3210 ± 380
GTGGA | 3810 ± 400
CGTTG | 3490 ± 420
CGGT | 3580 ± 430
GTAGA | 4270 ± 200
GCCTG | 4540 ± 630
GACTG | 3530 ± 400
GGTTA | 3800 ± 440
AAGGA | 3470 ± 490
CCTCT | 3040 ± 400
CTTTC | 3680 ± 510
TACAT | 3620 ± 370
TTCAG | 4840 ± 550
ACCGT | 4410 ± 210
TCCTC | 2300 ± 220
TATTG | 3410 ± 290
AGGCA | 3090 ± 460
CCTGT | 4260 ± 380
GCGAG | 4470 ± 530
ACGAG | 4610 ± 690
TTGTC | 2960 ± 340
GAAGC | 3280 ± 500
ATGAA | 4810 ± 440

A few values from the list:
GCCC | TdT poly-dT extension signal: 2960 ± 410
ACAT | TdT poly-dT extension signal: 3500 ± 240
CAGC | TdT poly-dT extension signal: 3700 ± 570
CAACA | TdT poly-dT extension signal: 3430 ± 420

Rewritten with each value named: entries from further up.
TCCTC
  TdT poly-dT extension signal = 2300 ± 220
TATTG
  TdT poly-dT extension signal = 3410 ± 290
AGGCA
  TdT poly-dT extension signal = 3090 ± 460

From the supplement of paper PMC8291772
